No constants are given. Whether binding was seen depends on the method and setting. In cells and extracts the contact can be indirect. Sequences can lack the tags named with a protein.
Target: T1, Mps3-3xFLAG (S. cerevisiae) (UniProt P47069)
T1 sequence (chain, glycosylated (detected by Pro-Q Emerald stain)): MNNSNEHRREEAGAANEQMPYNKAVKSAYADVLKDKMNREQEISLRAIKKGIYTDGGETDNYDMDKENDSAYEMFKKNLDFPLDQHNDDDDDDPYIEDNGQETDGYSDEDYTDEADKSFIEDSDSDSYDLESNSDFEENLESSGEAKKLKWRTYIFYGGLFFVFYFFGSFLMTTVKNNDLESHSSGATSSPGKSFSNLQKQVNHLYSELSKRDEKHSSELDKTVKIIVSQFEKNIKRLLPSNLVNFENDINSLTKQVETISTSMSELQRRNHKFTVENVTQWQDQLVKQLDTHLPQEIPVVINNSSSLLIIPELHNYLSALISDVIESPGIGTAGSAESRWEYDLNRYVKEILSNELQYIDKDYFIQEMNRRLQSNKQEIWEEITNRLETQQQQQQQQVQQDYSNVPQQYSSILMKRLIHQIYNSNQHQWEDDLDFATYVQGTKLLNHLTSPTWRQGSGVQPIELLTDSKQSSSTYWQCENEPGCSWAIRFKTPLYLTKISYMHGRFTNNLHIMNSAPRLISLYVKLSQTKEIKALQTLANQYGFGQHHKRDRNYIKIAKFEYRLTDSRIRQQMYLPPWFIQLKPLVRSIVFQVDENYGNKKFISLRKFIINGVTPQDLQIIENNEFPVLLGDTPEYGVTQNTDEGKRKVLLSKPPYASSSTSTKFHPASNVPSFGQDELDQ
Test: co-IP; Mps3-3xFLAG immunoprecipitated from yeast lysate and tested for 3xHA-Emp65 (Figure S3B)

- binding: no binding
B1: 3xHA-Emp65 (protein, UniProt P40085 1-556)
chain: MQHKDTAVAKDTAKKRLLRRNSAPSAIHIISRLDKKWSFLWNTIDRHNIVEEQDESSAAKSEEEHEDDYELEQLLNMIRIPMFLEKFMLFALLTSLDCFLYYFTVLPIRLIKGYVKQFKSYRQHYRLQQRSGHKNKIPFRYRITSREYKERCMIFIIVISSILLSKLDTSKLYHRIKRQSTMKLYMLFSVLEMADKMLASLGQSLLTVMLSRKNSERILLHKCLLVSMSLTYVTIHGYVLVYQAISLNIAVNSYSNALLTLLLSMQFAEIKSSVLKKFDKEGFFQITIADVVERFKLTLLLSITGLRNLQSWSSSLSNTSINFWSPRSTLSIVINILCGPMVSVVGSEVLVDWAKHAYITKFNRIRPQIYDKFYYIIYKDYSTRTHKLEDRLGLPLPAFVVLFIVMVRPTLFKSSEPSYLPSLFRILFMGASVFLLALLAKFTLDLILIKWSKRIEQRFRDQAFNTVVTEEEYVPGLLSGGMGKVDVSTRIALHSDYNKENRIETESVSPMRKRKTTLTAECTPPSLNDIRRQKDSKNPRSLENVARYKMVSKRIW

Reference: paper PMC3516490
